Consider 3 molecules from publication PMC9061766.

The chains behind the UniProt entries cited, without tags or fusion partners. Where a name states a change or a piece, a line headed by the entry shows the natural chain unless it says otherwise.
UniProt Q7ZWL0: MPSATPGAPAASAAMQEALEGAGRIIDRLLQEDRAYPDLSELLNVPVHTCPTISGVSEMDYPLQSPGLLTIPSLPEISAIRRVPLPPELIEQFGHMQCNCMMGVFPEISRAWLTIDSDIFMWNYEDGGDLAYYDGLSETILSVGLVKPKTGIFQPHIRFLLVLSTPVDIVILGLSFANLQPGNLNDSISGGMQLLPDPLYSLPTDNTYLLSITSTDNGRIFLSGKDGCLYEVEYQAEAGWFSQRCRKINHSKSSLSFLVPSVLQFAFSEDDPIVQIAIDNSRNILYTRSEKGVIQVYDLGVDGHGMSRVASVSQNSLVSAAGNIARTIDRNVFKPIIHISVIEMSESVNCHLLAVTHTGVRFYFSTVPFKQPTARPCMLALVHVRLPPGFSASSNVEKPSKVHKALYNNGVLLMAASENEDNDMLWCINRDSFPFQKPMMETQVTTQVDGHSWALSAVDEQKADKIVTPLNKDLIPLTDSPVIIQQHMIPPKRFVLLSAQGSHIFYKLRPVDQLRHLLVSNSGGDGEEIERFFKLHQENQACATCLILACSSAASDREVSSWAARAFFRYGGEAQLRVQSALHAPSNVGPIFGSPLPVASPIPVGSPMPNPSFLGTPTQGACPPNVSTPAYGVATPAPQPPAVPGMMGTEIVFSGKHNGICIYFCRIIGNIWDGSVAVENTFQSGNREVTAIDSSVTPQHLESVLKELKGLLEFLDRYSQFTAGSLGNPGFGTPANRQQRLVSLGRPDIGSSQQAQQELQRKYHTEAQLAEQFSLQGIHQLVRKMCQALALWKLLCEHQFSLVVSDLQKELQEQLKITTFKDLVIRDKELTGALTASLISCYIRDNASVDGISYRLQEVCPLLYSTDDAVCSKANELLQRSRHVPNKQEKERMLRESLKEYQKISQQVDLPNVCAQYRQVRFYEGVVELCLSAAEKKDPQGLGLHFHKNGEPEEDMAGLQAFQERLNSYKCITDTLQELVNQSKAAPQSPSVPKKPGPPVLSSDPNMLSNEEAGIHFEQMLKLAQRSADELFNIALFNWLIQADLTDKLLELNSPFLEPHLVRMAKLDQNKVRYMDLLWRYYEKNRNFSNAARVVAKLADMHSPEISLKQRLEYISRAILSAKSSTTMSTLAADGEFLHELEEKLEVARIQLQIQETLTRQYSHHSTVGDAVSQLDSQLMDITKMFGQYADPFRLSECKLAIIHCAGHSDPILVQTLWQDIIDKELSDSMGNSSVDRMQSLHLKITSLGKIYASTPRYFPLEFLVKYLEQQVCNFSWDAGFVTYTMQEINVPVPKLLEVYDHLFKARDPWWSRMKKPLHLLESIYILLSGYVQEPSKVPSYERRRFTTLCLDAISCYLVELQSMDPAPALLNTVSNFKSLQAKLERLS

Holding throughout (assay): cryo-EM structure; single-particle cryo-EM of NPCs on the nuclear envelope from X. laevis oocytes; IR subunit reconstructed at 4.2 Å average resolution (local up to 3.8 Å); known and AlphaFold-predicted models docked into the map
Assay [1] deals with T1, NDC1 (X. laevis (endogenous in oocytes)) (UniProt Q6AX31).
T1 sequence: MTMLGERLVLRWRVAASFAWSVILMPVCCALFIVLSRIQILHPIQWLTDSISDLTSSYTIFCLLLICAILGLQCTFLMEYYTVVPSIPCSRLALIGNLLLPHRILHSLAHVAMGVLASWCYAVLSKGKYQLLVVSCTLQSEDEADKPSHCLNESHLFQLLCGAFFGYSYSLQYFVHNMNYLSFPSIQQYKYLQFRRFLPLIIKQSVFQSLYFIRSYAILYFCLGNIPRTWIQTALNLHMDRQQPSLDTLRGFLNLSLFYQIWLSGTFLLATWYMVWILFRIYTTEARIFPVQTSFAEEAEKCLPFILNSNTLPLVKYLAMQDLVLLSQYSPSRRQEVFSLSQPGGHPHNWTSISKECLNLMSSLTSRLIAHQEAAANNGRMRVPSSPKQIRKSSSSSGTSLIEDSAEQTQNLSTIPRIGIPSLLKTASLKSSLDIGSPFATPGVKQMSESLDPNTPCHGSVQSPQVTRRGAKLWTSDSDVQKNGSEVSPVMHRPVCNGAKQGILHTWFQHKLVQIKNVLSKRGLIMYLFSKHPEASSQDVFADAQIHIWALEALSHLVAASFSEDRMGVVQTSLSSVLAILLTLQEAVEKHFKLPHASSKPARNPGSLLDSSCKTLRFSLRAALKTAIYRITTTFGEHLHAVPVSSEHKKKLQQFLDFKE

In assay [2] the target is T2, Nup93 (X. laevis (endogenous in oocytes)) (UniProt Q7ZX96).
T2 sequence: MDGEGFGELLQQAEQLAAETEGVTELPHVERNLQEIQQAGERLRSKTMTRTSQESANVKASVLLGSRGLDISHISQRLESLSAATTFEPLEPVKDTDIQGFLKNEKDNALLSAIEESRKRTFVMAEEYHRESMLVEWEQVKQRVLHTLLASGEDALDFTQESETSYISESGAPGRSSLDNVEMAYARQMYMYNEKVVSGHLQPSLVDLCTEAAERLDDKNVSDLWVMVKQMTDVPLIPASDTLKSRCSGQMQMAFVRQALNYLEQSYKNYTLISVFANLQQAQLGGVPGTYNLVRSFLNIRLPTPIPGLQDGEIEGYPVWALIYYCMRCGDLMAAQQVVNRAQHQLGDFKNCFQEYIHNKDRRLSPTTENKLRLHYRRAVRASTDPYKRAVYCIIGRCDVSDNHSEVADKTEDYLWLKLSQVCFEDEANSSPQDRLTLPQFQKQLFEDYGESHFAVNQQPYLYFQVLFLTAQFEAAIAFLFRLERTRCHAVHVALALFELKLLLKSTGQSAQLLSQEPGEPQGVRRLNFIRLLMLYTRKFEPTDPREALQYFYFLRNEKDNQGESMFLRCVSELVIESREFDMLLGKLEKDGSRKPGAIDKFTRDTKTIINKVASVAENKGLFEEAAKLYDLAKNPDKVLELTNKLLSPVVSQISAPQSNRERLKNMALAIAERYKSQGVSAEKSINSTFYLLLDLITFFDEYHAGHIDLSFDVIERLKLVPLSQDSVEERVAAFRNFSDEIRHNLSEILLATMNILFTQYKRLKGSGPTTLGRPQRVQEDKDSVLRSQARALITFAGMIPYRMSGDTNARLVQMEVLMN

Assay [3] has as its target Nup188 (X. laevis (endogenous in oocytes)).
Assay [4] has as its target channel nucleoporin hetero-trimer (Nup62/Nup58/Nup54) (X. laevis (endogenous in oocytes)).

Results are given in words; binding and its absence hold for the method and conditions named. Binding can be weak; no strength is given.

As to “ALADIN (X. laevis (endogenous in oocytes))”, in assay [1], the binding entry is reported as “binds”.
Regarding Nup155 (from UniProt Q7ZWL0), in assay [2], the binding entry was “binds”.

B1: Nup93 (protein, UniProt Q7ZX96 1-820)
chain: MDGEGFGELLQQAEQLAAETEGVTELPHVERNLQEIQQAGERLRSKTMTRTSQESANVKASVLLGSRGLDISHISQRLESLSAATTFEPLEPVKDTDIQGFLKNEKDNALLSAIEESRKRTFVMAEEYHRESMLVEWEQVKQRVLHTLLASGEDALDFTQESETSYISESGAPGRSSLDNVEMAYARQMYMYNEKVVSGHLQPSLVDLCTEAAERLDDKNVSDLWVMVKQMTDVPLIPASDTLKSRCSGQMQMAFVRQALNYLEQSYKNYTLISVFANLQQAQLGGVPGTYNLVRSFLNIRLPTPIPGLQDGEIEGYPVWALIYYCMRCGDLMAAQQVVNRAQHQLGDFKNCFQEYIHNKDRRLSPTTENKLRLHYRRAVRASTDPYKRAVYCIIGRCDVSDNHSEVADKTEDYLWLKLSQVCFEDEANSSPQDRLTLPQFQKQLFEDYGESHFAVNQQPYLYFQVLFLTAQFEAAIAFLFRLERTRCHAVHVALALFELKLLLKSTGQSAQLLSQEPGEPQGVRRLNFIRLLMLYTRKFEPTDPREALQYFYFLRNEKDNQGESMFLRCVSELVIESREFDMLLGKLEKDGSRKPGAIDKFTRDTKTIINKVASVAENKGLFEEAAKLYDLAKNPDKVLELTNKLLSPVVSQISAPQSNRERLKNMALAIAERYKSQGVSAEKSINSTFYLLLDLITFFDEYHAGHIDLSFDVIERLKLVPLSQDSVEERVAAFRNFSDEIRHNLSEILLATMNILFTQYKRLKGSGPTTLGRPQRVQEDKDSVLRSQARALITFAGMIPYRMSGDTNARLVQMEVLMN
As for B1, the binding result in assay [3] and in assay [4] was “binds” each time.
